The other results are listed elsewhere or left out. For some assays here: The source does not settle which construct or isoform was used.

This is an account of results in article PMC5996148.

Common to all, as to assay: protein microarray (ProtoArray v5.0), streptavidin-Alexa Fluor 647
What all share (conditions): 3'-biotin; 20 mM Tris (pH 7.5), 5 mM MgCl2, 100 mM KCl, 0.1% Tween-20, A/T-rich and random oligonucleotide blockers; temperature not stated; high values mean tight binding

In assay [1] the target is T1, LIMS2 (UniProt Q7Z4I7).
T1 sequence: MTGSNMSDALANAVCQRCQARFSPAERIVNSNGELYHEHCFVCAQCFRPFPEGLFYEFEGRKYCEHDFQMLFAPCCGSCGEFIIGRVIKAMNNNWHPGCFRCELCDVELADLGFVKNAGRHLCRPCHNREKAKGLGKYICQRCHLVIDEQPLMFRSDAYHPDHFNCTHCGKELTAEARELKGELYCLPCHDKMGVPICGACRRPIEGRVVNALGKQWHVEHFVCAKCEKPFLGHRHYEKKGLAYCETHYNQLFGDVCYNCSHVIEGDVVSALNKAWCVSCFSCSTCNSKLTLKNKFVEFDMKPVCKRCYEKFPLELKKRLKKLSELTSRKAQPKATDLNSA

For assay [2], the system named is LMAN1L (human).
Assay [3] concerns LMX1A (human).
Assay [4] deals with LOC113386 (human).
Assay [5] concerns LOC144631 (human).
For assay [6], the system named is LOC145846 (human).
The test system of assay [7] is LOC153684 protein (human).
The subject of assay [8] is LOC170425 (human).
Assay [9] has as its system LOC201725 (human).
For assay [10], the system named is LOC202459 (human).
Assay [11] has as its system LOC284422 (human).
Assay [12] relates to LOC285577 (human).
Assay [13] has as its system LOC388589 (human).
Assay [14] concerns LOC400600 (human).
Assay [15] has as its system LOC401270 (human).
Assay [16] has as its system LOC401607 (human).
In assay [17] the test system is LOC442582 (human).
Assay [18] relates to LOC51233 (human).
The test system of assay [19] is LOC51252 (human).
Assay [20] concerns LOC541471 (human).

Consider “GGTGACAGGGGTATGGGGAGGGG [G4-2 biotinylated (Ct1)]”, for which the binding signal in assay [1] was 3.87 z-score; in [2], -0.39 z-score; in assay [3] it was -0.395 z-score; in assay [4], -0.387 z-score; in [5], -0.369 z-score; in assay [6], -0.374 z-score. Moreover, the binding signal in assay [7] was 6.45 z-score; in [8], -0.374 z-score; in assay [9], -0.397 z-score; in assay [10] it was -0.38 z-score; in assay [11], -0.359 z-score; in [12], -0.377 z-score. Besides, the binding signal in [13] was -0.378 z-score; in assay [14] it was -0.371 z-score; in assay [15] it was -0.369 z-score; in [16], -0.369 z-score; in assay [17], -0.39 z-score; in assay [18], -0.39 z-score. Besides, the binding signal in [19] is -0.375 z-score; in assay [20], -0.383 z-score.
